Results reported in patent US11898161B2, “Stem cell culture medium and method” (RIKEN, priority 2006, dated 2024).
Some entries share one result that the patent states for a list of compounds. At least one compound was matched to its structure with a doubt left. Residues, ends and D or L forms follow the SMILES beside them. *: point of attachment. Cbz = O=C(OCc1ccccc1)*; CH2F = FC*

System: human ES cells (KhES-1)
Assay: Number of surviving cells in suspension culture (SFEB) of dissociated human ES cells
Type: cell-based
Conditions: 8% in non-supplemented group
Protocol: Human ES cells subjected to maintenance culture were detached as small cell clumps (aggregates) from feeder cells in the same manner as in Example 1, and after removal of residual feeder cells, they were dissociated into single cells by trypsin digestion. After centrifugation, 2×10^5 cells were dissociated in serum-free culture medium for post differentiation induction (Watanabe et al., Nature Neuroscience 8, 288-296, 2005; supplemented with G-MEM, KSR and 2-mercaptoethanol, KSR was added at a concentration of 20%). The singly-dissociated human ES cells (1.0×10^5 cells/ml) were suspension-cultured in a non-cell adhesive 35 mm culture plate to form aggregates, and were cultured in the same culture medium for 2-6 days (SFEB method; See the above reference of Watanabe et al.). After 2-day culture, the percentage of apoptic cells was measured by TUNEL method (MEBSTAIN Apoptosis kit Direct, MBL). Treatment with ROCK inhibitor, Y-27632, was initiated at 1 hour before cell separation in the same manner as in Example 1, and the inhibitor was added to maintenance culture medium also after dissociation. For comparison, caspase inhibitor (ZVAD; 10 μM) and BDNF/NT-3/NT-4 (mixture of 50 ng/ml each), whose apoptosis suppressive effect has been reported, were used to conduct the experiment. In addition, the number of surviving cells on day 6 was counted in each case.

## COC(=O)C[C@H](NC(=O)[C@H](C)NC(=O)[C@@H](NC(=O)OCc1ccccc1)C(C)C)C(=O)CF [ZVAD] (Cbz-Val-Ala-Asp(OMe)-CH2F)
  surviving cells on day 6 (of plated cells): less than 10%
